# ± gives the standard deviation of the averaged measurements. This is a selection; strong and weak results do not stand in their true shares.
# Legend:
# Assay in all cases: NP40-soluble protein abundance relative to vehicle (solubility fold change) (ratio); higher = more soluble protein in presence of AMP-PNP
# AARSD1 = molecular target: T1, AARSD1 (UniProt Q9BTE6)
# T1 sequence (whole entry): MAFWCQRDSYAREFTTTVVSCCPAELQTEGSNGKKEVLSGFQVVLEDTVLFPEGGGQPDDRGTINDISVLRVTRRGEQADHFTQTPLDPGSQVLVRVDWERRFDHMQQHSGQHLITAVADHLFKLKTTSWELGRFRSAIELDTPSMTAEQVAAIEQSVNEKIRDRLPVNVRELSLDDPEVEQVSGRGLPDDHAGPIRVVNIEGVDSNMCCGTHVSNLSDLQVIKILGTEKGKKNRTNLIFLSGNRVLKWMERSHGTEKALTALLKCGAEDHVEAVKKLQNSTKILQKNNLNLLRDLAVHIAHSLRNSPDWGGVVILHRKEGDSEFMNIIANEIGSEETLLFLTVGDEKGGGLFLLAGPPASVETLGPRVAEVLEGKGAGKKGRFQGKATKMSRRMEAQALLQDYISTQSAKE
# Outline: (§1)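 Data come from three independent experiments in which Dounce-homogenised Jurkat crude lysate was treated at eight concentrations from 0.1 to 10 mM. Treatment ran 10 min at room temperature and then 3 min at 37 °C, after which 0.8% NP40 and benzonase were added for 60 min at 4 °C before ultracentrifugation. The supernatant underwent TMT labelling and LC-MS/MS, and vsn-normalised intensities were expressed as fold change against the detergent-processed vehicle in each replicate.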
# ABHD6 = molecular target: T2, ABHD6 (UniProt Q9BV23)
# T2 sequence (whole entry): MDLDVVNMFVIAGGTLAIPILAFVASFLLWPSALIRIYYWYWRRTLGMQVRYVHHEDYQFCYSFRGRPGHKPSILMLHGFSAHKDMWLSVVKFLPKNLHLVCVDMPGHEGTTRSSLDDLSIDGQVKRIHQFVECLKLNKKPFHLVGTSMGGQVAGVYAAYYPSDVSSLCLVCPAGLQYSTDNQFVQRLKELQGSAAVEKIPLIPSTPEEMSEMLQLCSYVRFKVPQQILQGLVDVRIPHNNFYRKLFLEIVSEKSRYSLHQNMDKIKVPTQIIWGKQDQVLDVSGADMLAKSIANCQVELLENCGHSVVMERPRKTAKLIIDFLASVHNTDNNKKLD
# Outline: as §1
# ADAT1 = molecular target: T3, ADAT1 (UniProt Q9BUB4)
# T3 sequence (whole entry): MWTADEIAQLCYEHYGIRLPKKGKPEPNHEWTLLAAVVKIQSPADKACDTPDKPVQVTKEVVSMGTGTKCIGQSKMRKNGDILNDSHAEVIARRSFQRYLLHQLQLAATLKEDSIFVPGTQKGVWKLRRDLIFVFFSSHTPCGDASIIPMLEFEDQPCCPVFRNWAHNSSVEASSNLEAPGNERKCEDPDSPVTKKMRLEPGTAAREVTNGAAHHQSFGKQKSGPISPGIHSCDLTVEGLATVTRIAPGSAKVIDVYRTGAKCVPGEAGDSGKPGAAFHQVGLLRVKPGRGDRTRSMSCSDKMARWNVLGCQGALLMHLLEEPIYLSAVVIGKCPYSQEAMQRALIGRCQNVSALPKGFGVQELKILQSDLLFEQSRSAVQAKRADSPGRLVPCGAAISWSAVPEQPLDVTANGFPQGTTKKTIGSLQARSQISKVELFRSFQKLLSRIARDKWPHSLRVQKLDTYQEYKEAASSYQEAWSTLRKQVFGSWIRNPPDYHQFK
# Outline: as §1
# DNAJC2 = molecular target: T4, DNAJC2 (UniProt Q99543)
# T4 sequence (whole entry): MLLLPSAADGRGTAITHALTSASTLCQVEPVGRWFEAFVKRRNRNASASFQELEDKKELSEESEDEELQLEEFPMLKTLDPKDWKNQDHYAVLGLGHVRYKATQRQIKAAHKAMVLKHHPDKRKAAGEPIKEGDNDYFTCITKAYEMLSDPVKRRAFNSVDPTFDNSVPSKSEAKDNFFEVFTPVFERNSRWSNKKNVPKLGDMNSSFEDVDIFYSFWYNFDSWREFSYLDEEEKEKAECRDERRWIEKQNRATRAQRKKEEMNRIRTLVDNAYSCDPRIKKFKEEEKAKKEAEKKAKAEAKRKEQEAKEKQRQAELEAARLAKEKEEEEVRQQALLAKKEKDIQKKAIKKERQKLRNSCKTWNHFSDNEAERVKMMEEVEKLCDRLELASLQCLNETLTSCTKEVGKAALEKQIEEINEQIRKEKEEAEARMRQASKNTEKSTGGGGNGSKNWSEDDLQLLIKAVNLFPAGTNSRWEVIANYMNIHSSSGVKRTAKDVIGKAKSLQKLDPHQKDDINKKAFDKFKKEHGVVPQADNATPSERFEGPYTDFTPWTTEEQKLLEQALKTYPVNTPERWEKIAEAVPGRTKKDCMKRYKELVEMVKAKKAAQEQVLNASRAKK
# Outline: as §1
# DOHH = molecular target: T5, DOHH (UniProt Q9BU89)
# T5 sequence (whole entry): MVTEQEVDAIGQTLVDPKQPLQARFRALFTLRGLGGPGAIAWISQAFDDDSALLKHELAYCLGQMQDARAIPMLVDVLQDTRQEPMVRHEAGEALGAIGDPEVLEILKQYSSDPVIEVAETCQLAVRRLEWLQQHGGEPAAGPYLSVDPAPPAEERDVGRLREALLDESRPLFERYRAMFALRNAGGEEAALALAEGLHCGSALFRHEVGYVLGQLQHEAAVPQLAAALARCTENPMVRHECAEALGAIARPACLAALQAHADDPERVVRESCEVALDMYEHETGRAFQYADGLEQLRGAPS
# Outline: as §1
# EFHD1 = molecular target: T6, EFHD1 (UniProt Q9BUP0)
# T6 sequence (whole entry): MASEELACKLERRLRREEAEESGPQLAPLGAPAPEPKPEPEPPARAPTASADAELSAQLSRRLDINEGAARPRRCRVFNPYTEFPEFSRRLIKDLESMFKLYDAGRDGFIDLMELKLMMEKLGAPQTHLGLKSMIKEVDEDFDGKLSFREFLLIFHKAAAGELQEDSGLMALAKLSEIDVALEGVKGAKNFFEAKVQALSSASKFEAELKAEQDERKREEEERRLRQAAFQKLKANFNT
# Outline: as §1
# FUNDC2 = molecular target: T7, FUNDC2 (UniProt Q9BWH2)
# T7 sequence (whole entry): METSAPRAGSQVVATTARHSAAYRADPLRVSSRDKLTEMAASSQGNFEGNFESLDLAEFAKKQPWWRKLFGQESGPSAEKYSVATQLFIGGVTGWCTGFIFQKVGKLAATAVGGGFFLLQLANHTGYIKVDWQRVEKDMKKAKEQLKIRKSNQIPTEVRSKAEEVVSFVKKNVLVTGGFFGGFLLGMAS
# Outline: as §1
# NACC1 = molecular target: T8, NACC1 (UniProt Q96RE7)
# T8 sequence (whole entry): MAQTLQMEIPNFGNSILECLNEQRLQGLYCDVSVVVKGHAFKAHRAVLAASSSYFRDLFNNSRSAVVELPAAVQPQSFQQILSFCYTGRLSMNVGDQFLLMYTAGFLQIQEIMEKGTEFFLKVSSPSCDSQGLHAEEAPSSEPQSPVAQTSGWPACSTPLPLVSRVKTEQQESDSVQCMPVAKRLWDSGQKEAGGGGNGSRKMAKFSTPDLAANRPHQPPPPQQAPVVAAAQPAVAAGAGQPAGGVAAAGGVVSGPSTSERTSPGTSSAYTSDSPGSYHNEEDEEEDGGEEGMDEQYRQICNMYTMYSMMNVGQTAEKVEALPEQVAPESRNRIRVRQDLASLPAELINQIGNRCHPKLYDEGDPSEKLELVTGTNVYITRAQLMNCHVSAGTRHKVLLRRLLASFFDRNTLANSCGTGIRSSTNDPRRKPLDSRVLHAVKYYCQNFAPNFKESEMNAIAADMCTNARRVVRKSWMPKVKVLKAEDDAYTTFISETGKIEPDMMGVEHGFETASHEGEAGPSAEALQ
# Outline: as §1
# NOC4L = molecular target: T9, NOC4L (UniProt Q9BVI4); conditions: concentration: 1mM
# T9 sequence (whole entry): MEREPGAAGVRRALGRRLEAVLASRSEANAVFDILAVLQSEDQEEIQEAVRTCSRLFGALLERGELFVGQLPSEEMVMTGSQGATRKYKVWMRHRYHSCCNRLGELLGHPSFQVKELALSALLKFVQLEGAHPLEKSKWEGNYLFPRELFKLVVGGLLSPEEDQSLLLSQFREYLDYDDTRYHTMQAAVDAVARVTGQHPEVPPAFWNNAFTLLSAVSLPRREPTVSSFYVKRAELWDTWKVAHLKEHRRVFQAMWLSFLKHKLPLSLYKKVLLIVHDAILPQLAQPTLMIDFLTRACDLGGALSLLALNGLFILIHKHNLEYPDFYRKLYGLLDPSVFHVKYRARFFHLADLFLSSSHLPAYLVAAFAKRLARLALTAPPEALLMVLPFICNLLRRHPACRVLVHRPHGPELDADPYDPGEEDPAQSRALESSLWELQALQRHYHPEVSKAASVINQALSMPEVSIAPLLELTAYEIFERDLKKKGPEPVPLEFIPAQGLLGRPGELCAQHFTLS
# Outline: as §1
smiles,measurement,setting,value
Nc1ncnc2c1ncn2[C@@H]1O[C@H](COP(=O)(O)OP(=O)(O)NP(=O)(O)O)[C@@H](O)[C@H]1O [adenylyl imidodiphosphate],NP40-soluble protein abundance,AARSD1; concentration: 1mM,0.966 ± 0.01
same,NP40-soluble protein abundance,AARSD1; concentration: 2mM,0.936 ± 0.018
same,NP40-soluble protein abundance,AARSD1; concentration: 4mM,0.9389 ± 0.0084
same,NP40-soluble protein abundance,AARSD1; concentration: 6mM,0.967 ± 0.021
same,NP40-soluble protein abundance,AARSD1; concentration: 8mM,0.962 ± 0.018
same,NP40-soluble protein abundance,AARSD1; concentration: 10mM,0.962 ± 0.02
same,NP40-soluble protein abundance,ABHD6; concentration: 1mM,1.01 ± 0.023
same,NP40-soluble protein abundance,ABHD6; concentration: 2mM,0.997 ± 0.032
same,NP40-soluble protein abundance,ABHD6; concentration: 4mM,1.01 ± 0.0071
same,NP40-soluble protein abundance,ABHD6; concentration: 6mM,1.01 ± 0.028
same,NP40-soluble protein abundance,ABHD6; concentration: 8mM,1 ± 0.025
same,NP40-soluble protein abundance,ABHD6; concentration: 10mM,0.999 ± 0.023
same,NP40-soluble protein abundance,ADAT1; concentration: 1mM,1 ± 0.027
same,NP40-soluble protein abundance,ADAT1; concentration: 2mM,1 ± 0.03
same,NP40-soluble protein abundance,ADAT1; concentration: 4mM,1.01 ± 0.031
same,NP40-soluble protein abundance,ADAT1; concentration: 6mM,0.997 ± 0.027
same,NP40-soluble protein abundance,ADAT1; concentration: 8mM,1.01 ± 0.035
same,NP40-soluble protein abundance,ADAT1; concentration: 10mM,0.995 ± 0.057
same,NP40-soluble protein abundance,DNAJC2; concentration: 1mM,1.049 ± 0.0066
same,NP40-soluble protein abundance,DNAJC2; concentration: 2mM,1.02 ± 0.015
same,NP40-soluble protein abundance,DNAJC2; concentration: 4mM,1.01 ± 0.02
same,NP40-soluble protein abundance,DNAJC2; concentration: 6mM,0.972 ± 0.045
same,NP40-soluble protein abundance,DNAJC2; concentration: 8mM,0.955 ± 0.016
same,NP40-soluble protein abundance,DNAJC2; concentration: 10mM,0.949 ± 0.024
same,NP40-soluble protein abundance,DOHH; concentration: 1mM,0.987 ± 0.041
same,NP40-soluble protein abundance,DOHH; concentration: 2mM,1.04 ± 0.012
same,NP40-soluble protein abundance,DOHH; concentration: 4mM,1.02 ± 0.05
same,NP40-soluble protein abundance,DOHH; concentration: 6mM,0.971 ± 0.015
same,NP40-soluble protein abundance,DOHH; concentration: 8mM,0.957 ± 0.06
same,NP40-soluble protein abundance,DOHH; concentration: 10mM,0.958 ± 0.042
same,NP40-soluble protein abundance,EFHD1; concentration: 1mM,0.952 ± 0.093
same,NP40-soluble protein abundance,EFHD1; concentration: 2mM,0.996 ± 0.08
same,NP40-soluble protein abundance,EFHD1; concentration: 4mM,0.955 ± 0.084
same,NP40-soluble protein abundance,EFHD1; concentration: 6mM,0.937 ± 0.066
same,NP40-soluble protein abundance,EFHD1; concentration: 8mM,0.941 ± 0.056
same,NP40-soluble protein abundance,EFHD1; concentration: 10mM,0.894 ± 0.078
same,NP40-soluble protein abundance,FUNDC2; concentration: 1mM,0.996 ± 0.015
same,NP40-soluble protein abundance,FUNDC2; concentration: 2mM,1.06 ± 0.12
same,NP40-soluble protein abundance,FUNDC2; concentration: 4mM,1 ± 0.065
same,NP40-soluble protein abundance,FUNDC2; concentration: 6mM,1.06 ± 0.067
same,NP40-soluble protein abundance,FUNDC2; concentration: 8mM,1.03 ± 0.056
same,NP40-soluble protein abundance,FUNDC2; concentration: 10mM,1.1 ± 0.12
same,NP40-soluble protein abundance,NACC1; concentration: 1mM,1 ± 0.021
same,NP40-soluble protein abundance,NACC1; concentration: 2mM,1.03 ± 0.052
same,NP40-soluble protein abundance,NACC1; concentration: 4mM,1 ± 0.049
same,NP40-soluble protein abundance,NACC1; concentration: 6mM,0.997 ± 0.034
same,NP40-soluble protein abundance,NACC1; concentration: 8mM,0.976 ± 0.042
same,NP40-soluble protein abundance,NACC1; concentration: 10mM,1.01 ± 0.067
same,NP40-soluble protein abundance,NOC4L,1.01 ± 0.019

# Copied from the listing (3 entries):
smiles,measurement,setting,value
Nc1ncnc2c1ncn2[C@@H]1O[C@H](COP(=O)(O)OP(=O)(O)NP(=O)(O)O)[C@@H](O)[C@H]1O [adenylyl imidodiphosphate],NP40-soluble protein abundance,FUNDC2; concentration: 4mM,1 ± 0.065
same,NP40-soluble protein abundance,FUNDC2; concentration: 6mM,1.06 ± 0.067
same,NP40-soluble protein abundance,FUNDC2; concentration: 8mM,1.03 ± 0.056
